# Laboratory results published in PubChem BioAssay (Tox21).
# Protein sequences, listed by entry. Tags and fused reporters are not part of them.
# UniProt P14416, whole entry, looked up: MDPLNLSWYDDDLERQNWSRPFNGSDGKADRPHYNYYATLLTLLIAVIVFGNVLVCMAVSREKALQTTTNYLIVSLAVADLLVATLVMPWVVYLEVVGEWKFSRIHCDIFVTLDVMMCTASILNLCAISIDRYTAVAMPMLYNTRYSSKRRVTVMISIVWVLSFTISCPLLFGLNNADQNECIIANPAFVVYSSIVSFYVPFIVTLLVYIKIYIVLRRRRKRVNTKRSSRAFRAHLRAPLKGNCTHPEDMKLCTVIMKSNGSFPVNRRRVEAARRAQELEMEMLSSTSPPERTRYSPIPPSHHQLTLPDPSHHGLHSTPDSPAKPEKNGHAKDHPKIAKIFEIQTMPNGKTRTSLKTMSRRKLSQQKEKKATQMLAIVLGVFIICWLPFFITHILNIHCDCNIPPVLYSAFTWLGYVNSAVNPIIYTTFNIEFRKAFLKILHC
# Inconclusive means that the source gave no clear call. Such entries were picked first, then a sample of the others. A call without a number means that no potency is given here. For some of these results: Potencies beside an inconclusive call are fits to weak or partial responses and may not hold up. Calls of active or inactive are those of the source. Unless noted, the call rests on the fitted dose curve.
# Key:
# [1] = p53 small molecule agonists, cell-based qHTS assay with human liver microsomes (AID 1963577); settings: HCT-116 p53RE-bla with human liver microsomes, ratio, 16 h; activation: at 66 µM (top of the series) unless noted; further: potency means the concentration at half of the fitted maximal effect;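 on activation: p53 response element beta-lactamase reporter cells with liver microsomes plus NADPH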
# Summary of the method: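 Reporter activation was measured by LiveBLAzer fluorescence intensity in p53RE-bla cells, which had been exposed to compounds for 16 h at 37 C alongside 0.5 mg/mL human liver microsomes and 0.5 mg/mL NADPH (final concentrations).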
# [2] = cAMP Responsive Elements (CRE) small molecule antagonists, cell-based qHTS assay (AID 1963591; active means well fitted inhibition curve with a large enough effect in the signal ratio in the repeat runs, not every such curve was filed as active; inconclusive means weak or mixed curves, or effect the other way; the % refers to the signal ratio; further: potency means the concentration at half of the fitted maximal effect); settings: CRE-bla HEK293T, beta-lactamase FRET ratio; activity change, negative = inhibition: at 92.4 µM (top of the series) unless noted
# Summary of the method: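 Antagonist mode: compounds are added alongside the adenylyl cyclase activator NKH477 (0.25 uM final) to CRE-bla HEK293T cells for 3 h. LiveBLAzer FRET substrate, 2 h at room temperature, reports bla expression.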
# [3] = target: Beta-2 adrenergic receptor (Homo sapiens) (UniProt P07550); experiment: Adrenergic beta2 receptor (ADRB2) small molecule agonists, cell-based qHTS assay (AID 1963593); settings: CHO-ADRB2 cells, cAMP HTRF, 30 min; activation: at 92.4 µM (top of the series) unless noted; further: potency means the concentration at half of the fitted maximal effect;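 on activation: CHO cells stably overexpressing human ADRB2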
# Summary of the method: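 CHO cells stably over-expressing ADRB2 were plated overnight at 37C, then dosed with compounds plus a stimulation mix containing 100uM IBMX and 25uM Ro-20-1724 for 0.5hr at room temperature. cAMP was measured by HTRF competition, 1hr.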
# [4] = target: Beta-2 adrenergic receptor (Homo sapiens) (UniProt P07550); experiment: Adrenergic beta2 receptor (ADRB2) small molecule antagonists, cell-based qHTS assay (AID 1963592); settings: CHO-ADRB2 cells, isoproterenol-stimulated cAMP HTRF ratio, 0.5 h; activity change, negative = inhibition: at 92.4 µM (top of the series) unless noted; further: nearly all actives have a fitted effect of over 50% in size
# Summary of the method: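 Assay format: CHO-ADRB2 cells, 18-20hr seeding at 37C/5% CO2, then compound plus 1nM isoproterenol agonist mix for 0.5hr RT. Homogeneous time-resolved fluorescence cAMP detection after 1hr, expressed as 665/615 nm ratio.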
# [5] = cAMP Responsive Elements (CRE) small molecule agonists, cell-based qHTS assay (AID 1963590); settings: CRE-bla HEK293T, beta-lactamase FRET ratio, 3 h; activation: at 92.4 µM (top of the series) unless noted
# Summary of the method: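 Agonist mode: compound added to CRE-bla HEK 293T cells (2,000/well, 18 h after plating) for 3 h at 37 C/5% CO2. Reporter activity detected via FRET beta-lactamase substrate, 2 h room-temperature loading.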
# [6] = target: D(2) dopamine receptor (Homo sapiens) (UniProt P14416); experiment: Dopamine D2 receptor (DRD2) small molecule antagonists, cell-based qHTS assay (AID 1963595; active means well fitted inhibition curve with a large enough effect in the signal ratio in the repeat runs, with a control signal flat; inconclusive means weak or mixed curves, or effect the other way; the % refers to the signal ratio; further: potency means the concentration at half of the fitted maximal effect); settings: HEK293-DRD2 cAMP HTRF antagonist mode; activity change, negative = inhibition: at 92.4 µM (top of the series) unless noted
# Summary of the method: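 Antagonist mode in DRD2-HEK293 cells: after compound addition with 0.1 mM Ro20-1724, cells received quinpirole (12 nM) and NKH477 (200 nM) for 30 min at room temperature; HTRF cAMP read after 1 h detection.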
# [7] = target: D(2) dopamine receptor (Homo sapiens) (UniProt P14416); experiment: Dopamine D2 receptor (DRD2) small molecule agonists, cell-based qHTS assay (AID 1963594); settings: HEK293-DRD2 cAMP HTRF, agonist mode, 30 min; activation: at 92.4 µM (top of the series) unless noted; further: nearly all actives have a fitted effect of over 35% in size
# Summary of the method: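 HEK293 cells stably expressing human DRD2, pre-treated with PDE inhibitor Ro20-1724 (0.1 mM final) and compound 10 min at room temperature, then stimulated with NKH477 (200nM […]) for 30 min. cAMP read by HTRF (665/620 nm).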
compound,measurement,setting,value
Cc1ccc2c(Cl)cc(Cl)c(O)c2n1,Potency,[1],inactive
same,Potency,[2],inactive
same,activation,[3],inconclusive: 39.3% [at 42.5 µM]
C=C(C)[C@@H]1CCC2=CCC[C@@H](C)[C@]2(C)C1,Potency,[1],inactive
same,Potency,[2],inactive
same,Potency,[3],inactive
CC/C=C\CC1=C(C)CCC1=O,Potency,[1],inactive
same,Potency,[2],inactive
same,Potency,[3],inactive
CCCC(=O)OCCC(C)C,Potency,[1],inactive
same,Potency,[2],inactive
same,activation,[3],inconclusive: 4.17%
CC1(C)C(=O)NC(=O)N1CO,Potency,[1],"inconclusive: 9.13 µM [fluorescent, full curve]"
same,Potency,[2],inactive
C[C@@H](O)C(=O)O,Potency,[1],"inconclusive: 71.7 µM [fluorescent, single point]"
same,Potency,[2],inactive
same,"activity change, negative = inhibition",[4],inconclusive: -29%
same,activation,[3],inconclusive: -98.9%
C=CC(O)CCCCC (configuration not stated),Potency,[1],inactive
same,Potency,[2],inactive
Cc1ccc(C(=O)C(C)CN2CCCCC2)cc1 (configuration not stated),Potency,[1],"inconclusive: 19.9 µM [fluorescent, partial curve]"
same,activation,[5],inconclusive: -2.77% [at 42.5 µM]
same,Potency,[3],"inconclusive: 0.668 µM [inhibitor, single point]"
same,Potency,[6],inconclusive: 29.8 µM [inhibitor]
CCCCOCCOCCOCCCC,Potency,[1],inactive
same,Potency,[2],inactive
Nc1cccc(N)c1,Potency,[1],inconclusive: 51.3 µM [fluorescent]
same,"activity change, negative = inhibition",[2],inconclusive: -25.6%
same,"activity change, negative = inhibition",[4],inconclusive: -12.8%
same,Potency,[6],"inconclusive: 34 µM [falling, partial curve, poor fit]"
same,"activity change, negative = inhibition",[6],inconclusive: 4.76%
O=[N+]([O-])c1ccc(CO)cc1,Potency,[1],inactive
same,Potency,[2],inactive
same,"activity change, negative = inhibition",[4],inconclusive: -3.83%
NC(CSCC(=O)O)C(=O)O (configuration not stated),activation,[1],inconclusive: 12.9% [at 30.3 µM]
same,Potency,[2],inactive
same,activation,[3],inconclusive: 20.2% [at 42.5 µM]
CCCCCCCCCCC[C@@H](C[C@@H]1OC(=O)[C@H]1CCCCCC)OC(=O)[C@H](CC(C)C)NC=O,Potency,[1],"inconclusive: 12.6 µM [fluorescent, partial curve]"
same,Potency,[2],inactive
same,activation,[3],inconclusive: 5.25% [at 42.5 µM]
same,Potency,[6],inactive
CC(C)N1C(=O)c2ccccc2C1=O,Potency,[1],"inconclusive: 45.8 µM [fluorescent, partial curve, poor fit]"
same,Potency,[2],"inconclusive: 25.4 µM [activator, single point]"
CC(C)SCc1ccco1,Potency,[1],inactive
same,Potency,[2],"inconclusive: 28.2 µM [activator, single point]"
same,Potency,[4],inactive
same,Potency,[3],inactive
Nc1cc(C(Cl)=C(Cl)Cl)c(S(N)(=O)=O)cc1S(N)(=O)=O,Potency,[1],inactive
same,Potency,[5],inactive
same,Potency,[3],inconclusive: 0.0007 µM
same,Potency,[7],inactive
Oc1ccc2c(c1)-c1ccccc1C2,Potency,[1],"inconclusive: 22.9 µM [falling, partial curve, poor fit]"
same,"activity change, negative = inhibition",[2],inconclusive: -38.7%
same,Potency,[3],"inconclusive: 1.09 µM [inhibitor, full curve, poor fit]"
CC(=O)OCc1ccc2c(c1)OCO2,Potency,[1],inconclusive: 45.8 µM [activator]
same,Potency,[5],inactive
same,Potency,[3],inactive
CCCCCCOC(=O)C(C)CC (configuration not stated),Potency,[1],inactive
same,Potency,[2],inactive
same,Potency,[6],inactive
CCCOC(=O)NCCCN(C)C,Potency,[1],"inconclusive: 45.8 µM [fluorescent, single point]"
same,Potency,[2],inactive
same,Potency,[3],inactive
CN(C)c1ccc(/C=C/c2ccc([N+](=O)[O-])cc2)cc1,activation,[1],inactive: -2.79% [at 5.99 µM]
same,activation,[5],inactive: -3.18% [at 8.39 µM]
same,Potency,[3],"inconclusive: 1.74 µM [inhibitor, single point]"
Cc1cc(NC(=O)C(=O)O)cc(C)c1Oc1ccc(O)c2c1CCC2,Potency,[1],"inconclusive: 11.5 µM [fluorescent, full curve]"
same,"activity change, negative = inhibition",[2],inconclusive: 26.3%
same,Potency,[3],inactive
C#C[C@]1(OC(C)=O)CC[C@H]2[C@@H]3CCC4=C[C@@H](OC(C)=O)CC[C@@H]4[C@H]3CC[C@@]21C,Potency,[1],inactive
same,"activity change, negative = inhibition",[2],inconclusive: -25.5% [at 42.4 µM]
same,activation,[3],inconclusive: 3.72% [at 42.5 µM]
CCCCc1ccc2cccc(S(=O)(=O)O)c2c1,Potency,[1],inactive
same,Potency,[5],inactive
same,Potency,[3],inactive
CCn1nc(C)c2c1C(=O)NCC(c1ccc(O)cc1)=N2,Potency,[1],"inconclusive: 45.8 µM [rising, partial curve, poor fit]"
same,"activity change, negative = inhibition",[2],inconclusive: 4.21%
same,Potency,[4],inactive
same,Potency,[6],"inconclusive: 15.4 µM [cytotoxic, partial curve, poor fit]"
CC(C)(O)C(=O)c1ccc(OCCO)cc1,Potency,[1],inactive
same,Potency,[2],inactive
same,activation,[3],inconclusive: -7.79%

# Part of the list above in a different format:
compound | measurement | setting | value
C=C(C)[C@@H]1CCC2=CCC[C@@H](C)[C@]2(C)C1 | Potency | [3] | inactive
CC/C=C\CC1=C(C)CCC1=O | Potency | [1] | inactive
CCCC(=O)OCCC(C)C | Potency | [1] | inactive
same | activation | [3] | inconclusive: 4.17%
C[C@@H](O)C(=O)O | activation | [3] | inconclusive: -98.9%
CCCCOCCOCCOCCCC | Potency | [2] | inactive
Nc1cccc(N)c1 | activity change, negative = inhibition | [2] | inconclusive: -25.6%
same | activity change, negative = inhibition | [4] | inconclusive: -12.8%
O=[N+]([O-])c1ccc(CO)cc1 | Potency | [1] | inactive
NC(CSCC(=O)O)C(=O)O (configuration not stated) | Potency | [2] | inactive
CC(C)SCc1ccco1 | Potency | [1] | inactive
same | Potency | [4] | inactive
same | Potency | [3] | inactive
Oc1ccc2c(c1)-c1ccccc1C2 | Potency | [1] | inconclusive: 22.9 µM [falling, partial curve, poor fit]
same | Potency | [3] | inconclusive: 1.09 µM [inhibitor, full curve, poor fit]
CC(=O)OCc1ccc2c(c1)OCO2 | Potency | [1] | inconclusive: 45.8 µM [activator]
same | Potency | [3] | inactive
CCCCCCOC(=O)C(C)CC (configuration not stated) | Potency | [2] | inactive
CCCOC(=O)NCCCN(C)C | Potency | [3] | inactive
Cc1cc(NC(=O)C(=O)O)cc(C)c1Oc1ccc(O)c2c1CCC2 | Potency | [3] | inactive
CCCCc1ccc2cccc(S(=O)(=O)O)c2c1 | Potency | [5] | inactive
CCn1nc(C)c2c1C(=O)NCC(c1ccc(O)cc1)=N2 | Potency | [1] | inconclusive: 45.8 µM [rising, partial curve, poor fit]
CC(C)(O)C(=O)c1ccc(OCCO)cc1 | Potency | [2] | inactive
